The results in this text go back to PubChem BioAssay AID2685 (National Center for Advancing Translational Sciences (NCATS), 2010).

The other results are listed elsewhere or left out. Shown are side measurements of this screen, not its main read-out; they come without a call. Most of these compounds were active or inconclusive in the main read-out, so they are no random draw. Potencies come from curve fits of mixed quality, noted in brackets.

A short description of the test: qHTS Assay for Lipid Storage Modulators in Drosophila S3 Cells.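 On cell number change: cells counted by Cell Tracker Red CMTPX staining in the red channel.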 The conditions noted are these: BODIPY lipid droplet fluorescence, 18-24 h; for cell number change: measured here: cell count max response, cells fed with added oleic acid. Summed up:
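Drosophila S3 cells loaded with oleic acid (400 uM, as added) and compounds at several concentrations; lipid droplets imaged by 488-nm laser-scanning cytometry, 500–530 nm intensity and object ratio to cell channel. Percent activity normalized to 20 uM Triacsin C.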

[1] abbreviates: measured here: cell number channel AC50, cells fed with added oleic acid.
[2] abbreviates: measured here: lipid fluorescence (Fed channel) AC50, cells fed with added oleic acid.

The AC50 is the concentration giving half of the maximal activity seen. Lower therefore signals activity at low concentration. Regarding `COCCn1c(C(=O)N2CCCC2)cc2c1C[C@H]1CN(C(=O)c3ccccc3)[C@@](Cc3ccc(F)cc3)(C(=O)OC)[C@@H]21`, the cell number change was -38.1%. For the same compound, the AC50 under setting [1] was 20.6 µM [falling, single point]. The AC50 under setting [2] is 16.4 µM [falling, partial curve].

Regarding `Cc1cccc(NC(=O)CN2C(=O)S/C(=C\C(=O)Nc3ccc(Cl)cc3)C2=O)c1`, the cell number change is -24.9%. In addition, the AC50 under setting [1] is 3.66 µM [falling, single point].

For `CCCCn1c(SCC(=O)NC2CCS(=O)(=O)C2)nc2ccccc2c1=O` (stereo unspecified), the cell number change was -2.83%. The AC50 under setting [2] is 0.00461 µM [falling, full curve, poor fit].

Take `CCOCCCNC(=O)C(c1ccc(OC)cc1)N(Cc1cccs1)C(=O)c1ccccn1` (stereo unspecified): the AC50 under setting [2] is 29.1 µM [falling, partial curve].

Consider `Cc1ccc(C2=NN(S(=O)(=O)c3ccccc3)C(c3ccccc3O)C2)cc1` (stereo unspecified), for which the cell number change was -47.5%. The AC50 under setting [1] is 20.6 µM [falling, single point]. The AC50 under setting [2] was 23.1 µM [falling, partial curve].

Consider `Cc1nn(CC(=O)N2CCC(C)CC2)c(=O)c2cccn12`, for which the AC50 under setting [2] was 0.731 µM [falling, single point].

Turning to `CCN(CC(=O)NCc1ccc(Cl)cc1)C(=O)c1cccc(S(=O)(=O)Nc2ccc(OC)cc2)c1`, under setting [1], the AC50 was 6.51 µM [falling, single point].

Regarding `O=C(Nc1cccc(NC(=O)c2ccccc2[N+](=O)[O-])c1)c1ccccc1Cl`, the cell number change is -7.43%.

As to `CC(NC(=O)c1ccco1)C1CCCO1` (stereo unspecified), the cell number change turned out to be 7.62%. For the same compound, the AC50 under setting [2] is 1.3 µM [falling, full curve].

With `Cc1c(C(=O)OCC(C)(C)CN(C)C)oc2ccccc12`, the AC50 by setting is: under setting [1], 1.16 µM [falling, partial curve]; under setting [2], 1.84 µM [falling, partial curve].

Take `COC(=O)c1ccc(C2C3=C(Nc4nnnn42)c2ccccc2OC3)cc1` (stereo unspecified): the cell number change is 14.9%. In addition, under setting [1], the AC50 is 2.59 µM [falling, single point].

Turning to `Cc1ccc2nc(NC(=O)CCNS(=O)(=O)c3ccc(Br)s3)sc2c1`, the cell number change was -50.8%. Also, the AC50 under setting [1] was 32.6 µM [falling, single point]. Further, under setting [2], the AC50 is 29.1 µM [falling, single point].

On to `Cc1ccc(N2CC(C(=O)N3CCC(C(=O)NC(C)(C)C)CC3)CC2=O)cc1` (stereo unspecified), for which the cell number change is -4.27%. For the same compound, under setting [2], the AC50 is 23.1 µM [falling, single point].

For `CC(NC(=O)c1cccc(S(=O)(=O)N2CCc3ccccc32)c1)c1ccco1` (stereo unspecified), the cell number change is -7.31%.

Take `COc1cc(/C=N/NC(=O)c2cccs2)ccc1O`: the cell number change was determined as 17%. Also, the AC50 under setting [2] is 29.1 µM [rising, single point].

On to `Cc1ccc(N/C=C/C(=O)c2ccccc2)cc1C`, for which the cell number change amounted to 2.92%. Also, under setting [2], the AC50 was 10.3 µM [rising, partial curve].

For the compound `Cc1ccc(N2C(=O)[C@@H]3C(C(=O)C(c4ccccc4)c4ccccc4)=NN[C@@H]3C2=O)cc1`, the cell number change was 6.27%. Moreover, the AC50 under setting [2] is 6.51 µM [rising, single point].

`Cn1c(-c2ccc(F)cc2)cnc1SCC(=O)Nc1ccccc1N1CCOCC1`: the cell number change worked out at 109%. Also, the AC50 under setting [1] was 2.59 µM [rising, full curve]. In addition, under setting [2], the AC50 is 2.59 µM [rising, full curve].

`Cc1ccc(-c2nnc(COc3cccc(-n4cnnn4)c3)o2)cc1`: the cell number change was -18.9%. In addition, the AC50 under setting [1] was 0.461 µM [falling, full curve, poor fit].

For `O=C(CSc1nncn1-c1ccccn1)Nc1cccc(Cl)c1`, the cell number change was -6.25%.

Take `CCn1c(-c2ccccc2)csc1=Nc1ccc(O)cc1`: the cell number change is -52.2%. In addition, under setting [1], the half-maximal activity concentration (AC50) was 0.366 µM [falling, partial curve]. For the same compound, the AC50 under setting [2] was 29.1 µM [falling, single point].

Take `COC(=O)CSc1nnc(-c2cccs2)n1-c1ccc(Cl)cc1`: the cell number change is -111%.

With `CCOC(=O)C1CCCN(CCC(=O)Nc2ccccc2)C1` (stereo unspecified), the cell number change was -28.5%. The AC50 under setting [1] was 0.00461 µM [falling, full curve, poor fit].

Consider `COc1ccc(C2/C=C\CN(C(=O)C3CC3)[C@H](Cc3ccccc3)C(=O)N2Cc2ccc(F)cc2)cc1` (stereo partly specified), for which the cell number change is -16.1%. Further, the AC50 under setting [2] was 16.4 µM [falling, single point].

As for `COc1ccc(CN(C)S(=O)(=O)c2nnc(NC(=O)c3cccc(C)c3)s2)cc1OC`, the cell number change is -53.2%. For the same compound, the AC50 under setting [1] is 0.0517 µM [falling, full curve, poor fit]. Besides, under setting [2], the AC50 is 0.651 µM [falling, full curve].

For the compound `CN(C)c1nc(OCCNC(=O)Nc2ccccc2)nc(N2CCOCC2)n1`, the cell number change came to 4.98%. In addition, the concentration at half-maximal activity (AC50) under setting [1] was 0.164 µM [rising, full curve]. The AC50 under setting [2] was 1.64 µM [rising, partial curve].

As for `CC1CCCN(C(=O)c2cc(S(=O)(=O)N3CCCCC3)c[nH]2)C1` (stereo unspecified), the cell number change is -2.99%. In addition, under setting [2], the AC50 is 1.16 µM [falling, partial curve].

For the compound `O=C(CC1SC(N2CCCC2)=NC1=O)Nc1ccc(C(=O)N2CCCC(C(F)(F)F)C2)cc1` (stereo unspecified), the cell number change is 24.2%.

Turning to `CC(C)C(=O)NC(Nc1cccc([N+](=O)[O-])c1)C(Cl)(Cl)Cl` (stereo unspecified), the cell number change is -8.22%.

With `Cc1cc(C#Cc2c(-c3ccccc3)n(C)c3ccccc23)ccc1F`, the cell number change was 33.7%. In addition, the AC50 under setting [1] is 13 µM [rising, partial curve].

`COc1cc([N+](=O)[O-])ccc1NC(=O)NCc1ccco1`: the cell number change was -39.6%.

As to `COc1cc2cc(C(=O)N(C)Cc3ccccc3)[nH]c2cc1OC`, the cell number change was 41.5%. Moreover, under setting [1], the AC50 is 6.51 µM [rising, single point]. Under setting [2], the AC50 was 29.1 µM [rising, single point].

Take `O=C(N/N=C\c1ccc(O)c([N+](=O)[O-])c1)c1ccccc1-n1cccc1`: the AC50 under setting [2] was 18.4 µM [rising, single point].

On to `Brc1ccc2c(c1)CN1CCCC1=N2`, for which the cell number change was -1.39%. Under setting [2], the AC50 was 0.092 µM [falling, full curve, poor fit].

Take `COc1ccc(C(CNC(=O)COc2ccccc2)N2CCOCC2)cc1` (stereo unspecified): the cell number change is -1.71%. Under setting [2], the AC50 is 16.4 µM [rising, single point].

Take `Cc1cc(C)c2nc(N(CCCN(C)C)C(=O)c3ccc4c(c3)CCCC4)sc2c1`: the cell number change is -83.9%. The AC50 under setting [1] was 13 µM [falling, partial curve].

As to `COc1ccc(NS(=O)(=O)c2cccc(C(=O)NC3CCN(Cc4ccccc4)CC3)c2)cc1`, the cell number change was 8.65%.

`O=C1/C(=C\c2cccnc2)CN(Cc2ccccc2)C/C1=C\c1cccnc1`: the AC50 under setting [2] was 2.06 µM [falling, full curve].
